In paper PMC6805918, “Extracellular pyridine nucleotides trigger plant systemic immunity through a lectin receptor kinase/BAK1 complex” (Nature Communications, 2019):
No constants are given. Whether binding was seen depends on the method and setting. Binding seen in cells or lysates may run through a third protein. Some binding calls cover weakened binding; strength is not graded here. Tags and fused reporters may be left off the sequences shown.

Biological target: T1, LecRK-VI.2-FLAG (Arabidopsis thaliana) (UniProt Q9M021)
T1 sequence: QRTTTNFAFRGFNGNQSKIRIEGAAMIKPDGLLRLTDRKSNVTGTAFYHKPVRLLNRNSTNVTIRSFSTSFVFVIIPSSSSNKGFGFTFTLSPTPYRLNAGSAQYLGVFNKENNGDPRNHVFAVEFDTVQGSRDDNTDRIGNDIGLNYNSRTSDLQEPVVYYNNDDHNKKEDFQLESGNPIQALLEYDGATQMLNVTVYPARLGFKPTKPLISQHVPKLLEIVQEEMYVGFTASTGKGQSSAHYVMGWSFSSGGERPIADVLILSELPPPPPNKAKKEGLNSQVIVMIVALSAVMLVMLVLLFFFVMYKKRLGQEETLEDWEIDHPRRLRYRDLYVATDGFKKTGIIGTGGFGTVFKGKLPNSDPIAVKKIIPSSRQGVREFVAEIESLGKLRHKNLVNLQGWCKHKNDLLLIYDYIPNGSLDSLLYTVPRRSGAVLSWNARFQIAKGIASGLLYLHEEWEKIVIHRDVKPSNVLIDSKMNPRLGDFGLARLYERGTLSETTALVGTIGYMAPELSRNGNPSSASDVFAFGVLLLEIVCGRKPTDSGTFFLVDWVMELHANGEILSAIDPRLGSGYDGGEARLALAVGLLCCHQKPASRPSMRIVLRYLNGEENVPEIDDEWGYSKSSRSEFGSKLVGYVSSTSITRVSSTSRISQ
Assay: co-IP; N. benthamiana leaves transiently co-expressing the proteins, with or without 0.8 mM NADP+ for 10 min; total protein extract precipitated with anti-FLAG M2 affinity agarose, 4 °C, 4 hr; immunoblot with anti-FLAG and anti-GFP

- binding: binds
B1: BAK1-GFP (transiently expressed in N. benthamiana) (receptor, UniProt Q94F62 26-615)
chain: NAEGDALSALKNSLADPNKVLQSWDATLVTPCTWFHVTCNSDNSVTRVDLGNANLSGQLVMQLGQLPNLQYLELYSNNITGTIPEQLGNLTELVSLDLYLNNLSGPIPSTLGRLKKLRFLRLNNNSLSGEIPRSLTAVLTLQVLDLSNNPLTGDIPVNGSFSLFTPISFANTKLTPLPASPPPPISPTPPSPAGSNRITGAIAGGVAAGAALLFAVPAIALAWWRRKKPQDHFFDVPAEEDPEVHLGQLKRFSLRELQVASDNFSNKNILGRGGFGKVYKGRLADGTLVAVKRLKEERTQGGELQFQTEVEMISMAVHRNLLRLRGFCMTPTERLLVYPYMANGSVASCLRERPESQPPLDWPKRQRIALGSARGLAYLHDHCDPKIIHRDVKAANILLDEEFEAVVGDFGLAKLMDYKDTHVTTAVRGTIGHIAPEYLSTGKSSEKTDVFGYGVMLLELITGQRAFDLARLANDDDVMLLDWVKGLLKEKKLEALVDVDLQGNYKDEEVEQLIQVALLCTQSSPMERPKMSEVVRMLEGDGLAERWEEWQKEEMFRQDFNYPTHHPAVSGWIIGDSTSQIENEYPSGPR
